The source of these data is patent publication US20070087988A1, “Hematopoietic progenitor kinase 1 for modulation of an immune response” (New York University, priority 2005, published 2007).

The chains behind the UniProt entries cited, without tags or fusion partners. Residues count along the entry.
UniProt Q92918: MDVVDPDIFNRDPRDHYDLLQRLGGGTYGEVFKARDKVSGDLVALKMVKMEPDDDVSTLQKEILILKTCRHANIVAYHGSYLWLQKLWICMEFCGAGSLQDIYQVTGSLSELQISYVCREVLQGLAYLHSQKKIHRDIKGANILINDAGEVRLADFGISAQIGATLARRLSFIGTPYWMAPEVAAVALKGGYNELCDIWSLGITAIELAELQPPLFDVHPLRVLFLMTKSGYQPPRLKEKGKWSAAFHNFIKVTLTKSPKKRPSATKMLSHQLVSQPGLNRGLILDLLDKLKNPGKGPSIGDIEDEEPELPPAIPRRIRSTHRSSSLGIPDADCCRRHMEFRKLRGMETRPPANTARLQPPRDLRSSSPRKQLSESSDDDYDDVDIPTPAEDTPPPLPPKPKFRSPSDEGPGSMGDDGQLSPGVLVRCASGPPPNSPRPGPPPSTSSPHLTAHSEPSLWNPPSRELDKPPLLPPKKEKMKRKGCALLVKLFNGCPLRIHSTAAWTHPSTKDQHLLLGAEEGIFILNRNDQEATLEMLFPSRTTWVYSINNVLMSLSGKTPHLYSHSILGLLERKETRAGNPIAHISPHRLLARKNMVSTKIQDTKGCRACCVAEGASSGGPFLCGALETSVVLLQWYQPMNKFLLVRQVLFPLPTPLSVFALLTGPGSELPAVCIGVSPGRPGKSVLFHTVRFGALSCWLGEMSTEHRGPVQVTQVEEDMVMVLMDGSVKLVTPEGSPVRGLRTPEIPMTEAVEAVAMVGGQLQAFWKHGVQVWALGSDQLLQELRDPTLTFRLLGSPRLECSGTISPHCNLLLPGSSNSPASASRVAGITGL
UniProt P46108, residues 2-304: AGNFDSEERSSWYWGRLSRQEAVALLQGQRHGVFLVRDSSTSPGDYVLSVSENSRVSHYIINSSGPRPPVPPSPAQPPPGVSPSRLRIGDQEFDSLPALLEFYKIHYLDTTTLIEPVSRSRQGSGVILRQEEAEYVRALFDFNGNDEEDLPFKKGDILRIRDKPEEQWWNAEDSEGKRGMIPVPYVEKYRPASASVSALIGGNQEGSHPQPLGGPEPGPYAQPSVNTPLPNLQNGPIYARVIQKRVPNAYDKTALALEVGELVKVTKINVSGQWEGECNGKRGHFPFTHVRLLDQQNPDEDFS

For this assay, the target named is Hematopoietic progenitor kinase 1 (HPK1), endogenous protein of Jurkat T cells (human) (UniProt Q92918). The experiment in a line: co-immunoprecipitation with anti-Crk from Jurkat lysates, anti-HPK1 Western blot. (In general: A western blot detects proteins with antibodies after separation by electrophoresis.)

Results are given in words; binding and its absence hold for the method and conditions named. Binding seen in cells or lysates may run through a third protein. Some results given as binding are weak or reduced against the parent protein; the word gives no strength.

For “Crk adapter protein, endogenous protein of Jurkat T cells (from UniProt P46108 2-304)”, the binding entry was “binds”.
